Laboratory results: publication PMC8024722
Results are given in words; binding and its absence hold for the method and conditions named. In cells and extracts the contact can be indirect. Some entries that bind do so weakly or less than the wild type.

The chains behind the UniProt entries cited, without tags or fusion partners. Where a name states a change or a piece, a line headed by the entry shows the natural chain unless it says otherwise. Residues count along the entry.
UniProt Q92754: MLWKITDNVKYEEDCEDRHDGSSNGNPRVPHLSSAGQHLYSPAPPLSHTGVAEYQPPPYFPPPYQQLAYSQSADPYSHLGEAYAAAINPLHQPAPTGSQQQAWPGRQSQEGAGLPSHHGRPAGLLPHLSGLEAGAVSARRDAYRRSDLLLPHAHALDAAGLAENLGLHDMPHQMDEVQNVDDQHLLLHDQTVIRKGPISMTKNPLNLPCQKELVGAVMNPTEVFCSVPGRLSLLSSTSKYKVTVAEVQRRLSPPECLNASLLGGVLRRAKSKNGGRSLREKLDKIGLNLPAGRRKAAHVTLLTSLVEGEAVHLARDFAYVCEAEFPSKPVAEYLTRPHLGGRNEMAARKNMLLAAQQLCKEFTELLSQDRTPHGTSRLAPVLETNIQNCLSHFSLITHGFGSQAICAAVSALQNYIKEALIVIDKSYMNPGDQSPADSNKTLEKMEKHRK
UniProt Q8IZL8: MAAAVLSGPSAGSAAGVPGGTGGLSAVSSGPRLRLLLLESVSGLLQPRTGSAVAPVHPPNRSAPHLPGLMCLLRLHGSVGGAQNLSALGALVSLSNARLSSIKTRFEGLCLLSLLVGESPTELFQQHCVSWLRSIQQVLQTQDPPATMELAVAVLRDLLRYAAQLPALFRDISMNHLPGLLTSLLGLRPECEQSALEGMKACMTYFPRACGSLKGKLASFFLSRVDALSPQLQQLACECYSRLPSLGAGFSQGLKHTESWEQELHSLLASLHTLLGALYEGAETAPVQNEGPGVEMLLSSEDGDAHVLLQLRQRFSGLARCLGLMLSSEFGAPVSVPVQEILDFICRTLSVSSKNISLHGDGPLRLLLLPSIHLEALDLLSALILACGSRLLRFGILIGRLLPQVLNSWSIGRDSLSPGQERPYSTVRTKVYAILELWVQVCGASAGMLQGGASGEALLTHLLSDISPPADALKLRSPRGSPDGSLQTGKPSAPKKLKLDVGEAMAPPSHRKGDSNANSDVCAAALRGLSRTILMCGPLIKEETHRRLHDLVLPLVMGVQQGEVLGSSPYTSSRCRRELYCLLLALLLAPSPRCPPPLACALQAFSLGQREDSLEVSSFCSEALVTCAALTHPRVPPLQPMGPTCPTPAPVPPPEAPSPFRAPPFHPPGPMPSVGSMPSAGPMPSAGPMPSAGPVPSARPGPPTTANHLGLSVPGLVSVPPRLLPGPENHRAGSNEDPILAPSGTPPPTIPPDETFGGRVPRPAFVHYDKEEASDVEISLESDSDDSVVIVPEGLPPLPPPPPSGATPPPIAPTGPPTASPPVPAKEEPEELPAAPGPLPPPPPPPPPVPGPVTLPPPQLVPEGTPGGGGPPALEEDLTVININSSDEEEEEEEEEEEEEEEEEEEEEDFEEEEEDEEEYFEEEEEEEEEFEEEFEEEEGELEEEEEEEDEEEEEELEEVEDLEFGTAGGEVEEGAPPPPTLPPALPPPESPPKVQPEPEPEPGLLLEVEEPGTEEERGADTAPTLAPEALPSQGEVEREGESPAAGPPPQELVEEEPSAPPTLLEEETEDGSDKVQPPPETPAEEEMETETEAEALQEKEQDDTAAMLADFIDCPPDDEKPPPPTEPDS
GST‐PELP1 deletion containing 401–600 aa: residues 401-600 of Q8IZL8

How the values were obtained:
[1] = target: Transcription factor AP‐2 gamma (TFAP2C), endogenous (human (endogenous in MCF7 and ZR75)) (UniProt Q92754); assay: co-IP; total lysates of MCF7 (legend: MCF7 and ZR75) cells, precleared with protein A beads, IP with TFAP2C antibody or control IgG, western blot for PELP1
[2] = target: GST‐PELP1 full length (UniProt Q8IZL8); assay: pull-down; MCF7 total lysates incubated with E. coli expressed, purified GST-PELP1 full length or GST-PELP1 deletions (control GST); bound TFAP2C detected by western blot; only the target purified
[3] = target: GST‐PELP1 deletion containing 401–600 aa (UniProt Q8IZL8); assay: as above
[4] = target: GFP epitope tagged PELP1 (GFP‐PELP1) (UniProt Q8IZL8); assay: co-IP; total lysates of MCF7-GFP-PELP1 or ZR75-GFP-PELP1 cells (and control cells), precleared with protein A beads, IP with GFP-TRAP beads, western blot for TFAP2C

binding [1]	binding [2]	binding [3]	binding [4]	Substance
binds	–	–	–	Proline‐, glutamic acid‐, and leucine‐rich protein 1 (PELP1), endogenous (from UniProt Q8IZL8 1-1130)
–	binds	binds	binds	Transcription factor AP‐2 gamma (TFAP2C), endogenous (from UniProt Q92754 1-450)
